In all, about 33,000 sequences were measured (“E-score (-0.5 to 0.5)”: median about -0.0034, highest 2% from about 0.25 on). The list shows a part of the results.
Target: T1, Yap3 (UniProt P38749)
T1 sequence: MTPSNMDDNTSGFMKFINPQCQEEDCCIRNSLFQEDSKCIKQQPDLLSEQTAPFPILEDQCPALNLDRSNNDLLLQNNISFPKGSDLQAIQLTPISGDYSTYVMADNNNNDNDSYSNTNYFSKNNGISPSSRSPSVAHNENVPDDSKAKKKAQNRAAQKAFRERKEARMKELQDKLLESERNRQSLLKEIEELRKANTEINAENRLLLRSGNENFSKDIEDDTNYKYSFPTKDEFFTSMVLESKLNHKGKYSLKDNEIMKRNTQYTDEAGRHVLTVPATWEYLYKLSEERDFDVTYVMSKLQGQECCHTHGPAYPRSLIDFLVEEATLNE
Experiment: PBM E-score (8-mer binding enrichment) (E-score (-0.5 to 0.5)); higher = stronger / more preferred TF binding
Conditions: protein concentration: 100 nM; construct: GST-full length
How it was run: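 For each ungapped eight-base word taken together with its reverse complement, the Universal PBM Analysis Suite assigned an E-score. Binding data came from GST-tagged yeast transcription factors, applied at about 100-200 nM, on universal all-10-mer Agilent arrays made double-stranded by primer extension. Fluorescent anti-GST marked bound protein, and scans were normalised with masliner.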

Going from GCTGCCAA to CACCCACG, the “PBM E-score” value rises from -0.14 to 0.0674.

Compared with ATATGGCA, ACAGACTC is lower in “PBM E-score” value: 0.0955 for the first, -0.246 for the second.

First: GATGTTGC
Second: CTCTTTTA
The “PBM E-score” value of the first is higher: 0.0753 for the first, 0.0331 for the second.

Compared with AGGTTCCG, AAAGATCC is lower in “PBM E-score” value: 0.017 for the first, -0.0985 for the second.

First: CAGGGTCG
Second: CCCGGATC
The “PBM E-score” value of the first is lower: -0.203 for the first, -0.108 for the second.

Going from AGCCATAC to TGCACAAA, the “PBM E-score” value rises from -0.16 to 0.102.

Going from AGTTCTTG to CACTGCAC, the “PBM E-score” value falls from 0.0519 to -0.0913.

First: CTTTTTAC
Second: CGGAATAA
The “PBM E-score” value of the first is higher: 0.112 for the first, 0.107 for the second.

Going from ATGGTAAA to AAGATCGT, the “PBM E-score” value falls from 0.19 to 0.0564.

First: AAAATACG
Second: CAATTTCA
The “PBM E-score” value of the first is higher: 0.234 for the first, 0.0657 for the second.

Going from GGAGGGCA to CGGTCTAG, the “PBM E-score” value rises from -0.255 to -0.128.

Going from TACTGGAA to ATTAACCG, the “PBM E-score” value rises from 0.0679 to 0.143.

Compared with ATGGATGC, CAGTACTG is lower in “PBM E-score” value: 0.0712 for the first, -0.168 for the second.

Going from GACTCTAC to CGCCGCCG, the “PBM E-score” value rises from -0.199 to -0.0221.

First: ATCCAAAG
Second: ACTAGGGC
The “PBM E-score” value of the first is higher: 0.165 for the first, -0.153 for the second.

First: AAGGGGGG
Second: CAATCGTA
The “PBM E-score” value of the first is lower: -0.428 for the first, 0.109 for the second.

First: CACAGCGC
Second: GTCCTAAC
The “PBM E-score” value of the first is higher: 0.0581 for the first, -0.0915 for the second.

Compared with CCCCAACG, CGAGTAAC is higher in “PBM E-score” value: 0.0353 for the first, 0.191 for the second.

First: ACGTGCAT
Second: CTAGCACA
The “PBM E-score” value of the first is higher: -0.0838 for the first, -0.136 for the second.

Going from TTCGACAA to ACTTCCCC, the “PBM E-score” value falls from 0.163 to -0.251.

Going from ACAACAAG to CAGCACAC, the “PBM E-score” value falls from 0.122 to -0.173.

Going from GCTGCGGA to GGACCCTA, the “PBM E-score” value falls from 0.0222 to -0.251.

First: GTGTATCA
Second: AGTGTCAG
The “PBM E-score” value of the first is higher: 0.218 for the first, 0.0192 for the second.

First: ACTCCATC
Second: AAGTTAGG
The “PBM E-score” value of the first is higher: 0.0933 for the first, -0.0298 for the second.

Compared with ACTCGTCA, CTTAGGGA is lower in “PBM E-score” value: 0.0393 for the first, -0.2 for the second.

Compared with AACTTTGT, CTTCTGGC is lower in “PBM E-score” value: 0.129 for the first, -0.158 for the second.

Going from GGTTATCA to ATTCCCCA, the “PBM E-score” value rises from 0.0603 to 0.108.

Going from CAGTAACC to CACGGGCA, the “PBM E-score” value falls from 0.0594 to -0.101.

Compared with CCTAGTAC, CTGCACCA is lower in “PBM E-score” value: 0.0383 for the first, -0.171 for the second.

Compared with CCAGGCAA, CCTGGACA is lower in “PBM E-score” value: 0.0306 for the first, -0.206 for the second.

Compared with GTGGTGAA, TGCAACCA is higher in “PBM E-score” value: -0.0976 for the first, -0.0225 for the second.

Compared with CTCATGCC, ACGACGGG is lower in “PBM E-score” value: -0.0546 for the first, -0.0871 for the second.

Compared with CTTTTGTA, AGCGAGAC is lower in “PBM E-score” value: 0.189 for the first, -0.201 for the second.

Compared with CACGGGGC, CGCCGTGA is higher in “PBM E-score” value: -0.182 for the first, -0.14 for the second.

Compared with AGAGGTCA, CGCCATGC is lower in “PBM E-score” value: -0.0826 for the first, -0.168 for the second.

First: GGGTAACA
Second: CACGCGTC
The “PBM E-score” value of the first is lower: -0.0006 for the first, 0.154 for the second.

First: ATATAATA
Second: AGACCCTC
The “PBM E-score” value of the first is higher: 0.299 for the first, -0.277 for the second.

First: CCCTTAAC
Second: ATCACTTC
The “PBM E-score” value of the first is lower: -0.203 for the first, 0.172 for the second.

Going from CATTCACG to GGTGTGGA, the “PBM E-score” value rises from -0.0375 to -0.00324.

First: GGACCTAA
Second: GGGGGACA
The “PBM E-score” value of the first is higher: 0.0689 for the first, -0.139 for the second.

First: CGTGGAAG
Second: CGCCTTAA
The “PBM E-score” value of the first is higher: 0.13 for the first, 0.0344 for the second.

Compared with CTATAGAC, GTGTAGAA is higher in “PBM E-score” value: -0.101 for the first, -0.0487 for the second.

First: CGACGAAG
Second: AGCTTGGG
The “PBM E-score” value of the first is higher: -0.0428 for the first, -0.0575 for the second.

Going from GGTTTGCA to CCCTAGCA, the “PBM E-score” value falls from -0.0541 to -0.193.

Going from GCTCTGCC to ACTACCTA, the “PBM E-score” value rises from -0.236 to 0.0156.

Going from AACCATTG to ATCCTTGC, the “PBM E-score” value falls from 0.00934 to -0.091.

First: CAGAATGA
Second: GAAATGAA
The “PBM E-score” value of the first is lower: 0.105 for the first, 0.289 for the second.

First: CCAGAACC
Second: AATTACCC
The “PBM E-score” value of the first is lower: -0.0461 for the first, 0.107 for the second.

Going from CCAAAGCA to CCTCTTAC, the “PBM E-score” value falls from 0.0424 to 0.0115.

First: TGGCTCAA
Second: AATCTGAT
The “PBM E-score” value of the first is lower: -0.167 for the first, -0.00633 for the second.

Going from AGTTCCTG to CATTGCGA, the “PBM E-score” value rises from -0.15 to 0.0958.

Going from CGTTCAAA to GGATTCCC, the “PBM E-score” value falls from -0.0545 to -0.307.

First: CATTGAGA
Second: AGCAAACA
The “PBM E-score” value of the first is lower: -0.0633 for the first, 0.183 for the second.

First: CCAGGTCA
Second: CAGCGTCA
The “PBM E-score” value of the first is lower: -0.233 for the first, -0.163 for the second.

First: GGGTTAAC
Second: CGTCGGAA
The “PBM E-score” value of the first is lower: -0.0107 for the first, 0.133 for the second.

Compared with AAATGAAA, AGGCTTAA is lower in “PBM E-score” value: 0.324 for the first, 0.0671 for the second.

Compared with CGACTCGA, CCACTTGC is higher in “PBM E-score” value: -0.0784 for the first, -0.017 for the second.

Compared with ACCCATCT, CAAGAACA is lower in “PBM E-score” value: 0.0208 for the first, -0.0451 for the second.

Going from ATCTCCGC to GGTATGTA, the “PBM E-score” value rises from -0.0256 to 0.0396.

Going from GAGATGGA to CTCCGAAA, the “PBM E-score” value rises from -0.178 to -0.16.

Going from ACGAGGGA to CGCAAAGC, the “PBM E-score” value falls from 0.00788 to -0.105.

First: AGTTTAAG
Second: TTAAGCAA
The “PBM E-score” value of the first is lower: 0.0273 for the first, 0.0488 for the second.

Compared with CTGAGACA, GATTAGGA is higher in “PBM E-score” value: -0.0945 for the first, 0.0229 for the second.

First: CTCAGGAA
Second: CTCCTGGA
The “PBM E-score” value of the first is higher: -0.184 for the first, -0.222 for the second.

Going from GCGCTCGA to TAATTCTA, the “PBM E-score” value rises from -0.0438 to 0.21.

First: ACGTCGGG
Second: GCCGGACA
The “PBM E-score” value of the first is lower: -0.207 for the first, -0.0331 for the second.

First: CCGCGTTA
Second: ATCCAGTG
The “PBM E-score” value of the first is lower: 0.0529 for the first, 0.0972 for the second.

Going from GGCCGCCA to CCATCTCC, the “PBM E-score” value rises from -0.216 to 0.073.

Compared with AGCTCTTA, CTAGATGC is lower in “PBM E-score” value: -0.0963 for the first, -0.124 for the second.

First: AGGATTCC
Second: GACTGTGA
The “PBM E-score” value of the first is lower: -0.244 for the first, 0.0125 for the second.

Compared with AGCCCATA, ATGTTATA is higher in “PBM E-score” value: -0.0674 for the first, 0.0586 for the second.

Going from ATAGGCAA to ACTCGCTC, the “PBM E-score” value rises from -0.0278 to 0.0802.

Going from AGGAACCT to CTCTCGCC, the “PBM E-score” value falls from 0.1 to -0.195.

Going from GGCTGAAA to AGATCGAA, the “PBM E-score” value rises from 0.0542 to 0.07.

Compared with ATGTCGGA, GAATTACA is higher in “PBM E-score” value: -0.0348 for the first, 0.109 for the second.

First: GCGGGAAA
Second: CCCATCGC
The “PBM E-score” value of the first is higher: 0.0866 for the first, -0.0437 for the second.

First: GTTTCTTA
Second: CGTGACCC
The “PBM E-score” value of the first is higher: 0.118 for the first, -0.189 for the second.

Compared with AGTGGCCG, CCCTGAGG is lower in “PBM E-score” value: -0.119 for the first, -0.224 for the second.

Compared with CCATAATA, CAGTGATC is lower in “PBM E-score” value: 0.214 for the first, -0.0583 for the second.

First: ATTCATCC
Second: AAAAGGTT
The “PBM E-score” value of the first is higher: 0.207 for the first, -0.0346 for the second.

Compared with AGATAGTC, CGTATTAG is higher in “PBM E-score” value: -0.197 for the first, 0.152 for the second.

Compared with TCTAGAGA, GAGTGTGA is higher in “PBM E-score” value: -0.291 for the first, 0.139 for the second.

First: GCAGCGGC
Second: AAAGCCGC
The “PBM E-score” value of the first is lower: -0.238 for the first, -0.0895 for the second.

Going from CGGCCAAC to ATCCCTAA, the “PBM E-score” value falls from -0.0886 to -0.174.

First: CGGAGGGA
Second: GAGAAACA
The “PBM E-score” value of the first is lower: -0.233 for the first, 0.218 for the second.

Compared with CCGTTGCG, CACACGTA is higher in “PBM E-score” value: -0.0568 for the first, -0.0208 for the second.

Source: the supplement of paper PMC3334620
